Data taken from ChEMBL document CHEMBL3988442, “University of Dundee, Small-Polar-MMV Screening Library” (2021).

Protein sequences, listed by entry. Tags and fused reporters are not part of them.
UniProt E9BF75, entry or part of it: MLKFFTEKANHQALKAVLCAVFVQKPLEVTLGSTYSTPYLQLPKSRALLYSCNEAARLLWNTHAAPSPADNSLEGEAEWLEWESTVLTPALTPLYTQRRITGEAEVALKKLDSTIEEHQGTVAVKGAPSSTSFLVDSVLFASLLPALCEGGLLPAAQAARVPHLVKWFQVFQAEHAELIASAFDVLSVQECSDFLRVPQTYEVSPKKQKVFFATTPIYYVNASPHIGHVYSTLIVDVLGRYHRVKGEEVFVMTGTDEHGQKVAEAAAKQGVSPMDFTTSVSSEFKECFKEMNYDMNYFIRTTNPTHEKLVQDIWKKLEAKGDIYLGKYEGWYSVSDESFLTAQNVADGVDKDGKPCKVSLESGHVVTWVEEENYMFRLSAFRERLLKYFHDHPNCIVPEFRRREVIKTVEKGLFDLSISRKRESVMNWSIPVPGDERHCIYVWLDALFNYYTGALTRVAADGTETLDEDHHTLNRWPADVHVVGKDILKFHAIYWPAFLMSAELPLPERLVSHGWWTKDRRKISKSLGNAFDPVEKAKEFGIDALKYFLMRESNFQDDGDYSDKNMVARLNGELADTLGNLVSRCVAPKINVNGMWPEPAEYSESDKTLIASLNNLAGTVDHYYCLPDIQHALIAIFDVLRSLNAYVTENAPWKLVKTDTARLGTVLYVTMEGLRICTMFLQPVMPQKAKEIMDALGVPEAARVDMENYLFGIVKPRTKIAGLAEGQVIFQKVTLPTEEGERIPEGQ

Mtb heat-shock: 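Assay on Mycobacterium tuberculosis, filed only as a heat shock assay from Cornell; the read-out is not stated. The concentration is filed as 10 mM, unlikely as a test dose, so the dose is not known. Direction is inferred from retests: higher values go with stronger inhibition. Size under these conditions: about 69,000 compounds, about 930 of them at 50% or above in at least one test.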
LdMetRS: 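Primary screen of methionyl-tRNA synthetase; the read-out is not stated. Target: Methionyl-tRNA synthetase (putative), Leishmania donovani (UniProt E9BF75). The test concentration is not given. Values are per cent inhibition. Of about 68,000 compounds tested this way, about 24 (0.035%) reached 50% or more in at least one test.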
Mtb growth Cornell: 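Whole-cell assay for inhibitors of Mycobacterium tuberculosis growth, labelled Cornell in the record; the read-out is not stated. The concentration is filed as 10 mM, unlikely as a test dose, so the dose is not known. The record gives no direction; compounds strong in two other growth screens of this library score well above the rest, so higher reads as stronger inhibition. Of about 53,000 compounds tested this way, about 900 (1.7%) reached 50% or more in at least one test.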

Results are percentages, as filed.
The controls that fix the scale are not given in the record; negative values are as filed.
This is an unselected part of the compounds tested.
A dash means the value is not listed here; it may have been measured.

Compound | Mtb heat-shock | LdMetRS | Mtb growth Cornell
COCCOC(=O)N1CCC(c2nccn2CC2CC2)CC1 | -8.671 | 12.71 | 11.94
[H][C@]12CC[C@]([H])(CN(Cc3noc(C4CCCC4)n3)C1)N(CC1CCC1)C2 | 69.47 | - | 50.34
Cc1ccc(-c2ccsc2C(=O)NC2CCS(=O)(=O)C2)cc1 (stereo unspecified) | -2.704 | 11.61 | 23.02
CCC1COCCN1C(=O)CNC(=O)c1ccc2c(c1)CCC2 (stereo unspecified) | -27.81 | 10.48 | -62.84
O=C(c1cc(-c2ccco2)nc2c(Cl)cccc12)N1CC[C@H]2CNC[C@H]21 | - | 20.21 | -
CCn1ncc2c1NC(=O)C(C#N)C21CCCC1 (stereo unspecified) | -5.709 | 15.75 | -
CN(Cc1nnc(C2CC2)o1)C1CCCN(c2cccnn2)C1 (stereo unspecified) | -8.053 | 27.11 | -
O=C(NCCS(=O)(=O)N1CCN(c2ncccn2)CC1)c1ccccc1 | -6.942 | 10.45 | 0.5129
Cc1cnc(N2CC3(CCN(C(=O)c4ccoc4)C3)C2)nc1 | 12.57 | 7.874 | -25.17
Cc1noc(C)c1CN1C[C@@H]2COC[C@H](C(=O)N3CCOCC3)[C@@H]2C1 | - | 16.92 | -
Cn1cc(CN2CCCN(C(=O)c3ccc4c(c3)COC4)CC2)cn1 | 7.566 | 17.32 | 19.38
OCC1CCCN1c1cc(NCCNc2cccnn2)ncn1 (stereo unspecified) | -19.43 | 8.58 | -9.738
Cc1cnc(NC(=O)C(C)Oc2ccc3c(c2)OCO3)s1 (stereo unspecified) | -7.879 | 21.59 | 28.3
Nc1cc2c(nn1)CCN(C(=O)CCC1CCCCC1)C2 | 6.319 | 25.07 | -
Cc1nnc(SCCCNC(=O)Cc2ccc3c(c2)OCO3)s1 | -9.21 | 0 | -
Fc1cccc(N2CCCC3(C2)CN(c2cnccn2)CCO3)c1 (stereo unspecified) | 10.45 | 8.759 | 8.34
CN(C)C(=O)CO[C@H]1CN(Cc2cccc(C#N)c2)[C@@H]2COC[C@H]12 | - | 2.222 | -
COC(=O)c1ccc(CN(C(C)C)C(C)C)o1 | - | 6.344 | -
Cc1nc(C)c(C(=O)N2CCc3cc(F)ccc3C2C)o1 (stereo unspecified) | -16.98 | 9.924 | -6.74
O=C1CC(NS(=O)(=O)c2ccc(Br)cc2)CN1 (stereo unspecified) | 18.1 | 12.96 | 13.27
CCC(C)N(CC)C(=O)c1ccc2[nH]nnc2c1 (stereo unspecified) | 7.444 | 22.64 | -11.8
Cc1nc2c(c(N[C@H](C(N)=O)C(C)C)n1)Cc1ccccc1OC2 | -38 | 18.58 | 12.43
Cn1cc(C(=O)N2CCCC(c3ccncc3)C2)cn1 (stereo unspecified) | -18.39 | 5.729 | -73.34
CCc1noc(CN(C)Cc2cc3ccc(Cl)cc3[nH]c2=O)n1 | 17.08 | -3.581 | 16.33
Cc1ccc(CC(=O)N2CCOC(c3nc(C(C)(C)C)n[nH]3)C2)cn1 (stereo unspecified) | -7.819 | 16.81 | -55.44
Cc1cc(C(=O)N(C)C)nc(C2(C)CCCN2c2ccccc2)n1 (stereo unspecified) | -5.988 | 17.7 | -1.973
CCN(C)S(=O)(=O)N1CCC(C(O)c2ccc(F)cc2)CC1 (stereo unspecified) | 2.415 | 12.46 | 7.241
N#CC1CCCN(S(=O)(=O)c2ccc(C(=O)NCC(F)F)cc2)C1 (stereo unspecified) | -29.71 | 2.5 | -
COCCCOC1CN(C(=O)c2[nH]nc3c2CCCC3)C1 | 0.5862 | -2.484 | 19.87
CO[C@H]1CN(Cc2cc(F)ccc2F)CC[C@@]12CCCO2 | -15.5 | 11.06 | -
COCC(NC(=O)c1cc(C)n(C)n1)c1cccc(C(F)(F)F)c1 (stereo unspecified) | -21.31 | 9.537 | -4.745
Cc1ccc(C2CCCN2CC(=O)N(CCC#N)c2ccccc2)cc1 (stereo unspecified) | 23.49 | 13.74 | 28.66
CC(C)NC(=O)N1CCC2(COCc3cnc(-c4cccnc4)nc32)C1 (stereo unspecified) | -5.716 | 12.46 | 23.61
O=C(O)C(F)(F)F.[H][C@@]12CCN(C3CCOCC3)C[C@]1([H])O[C@@H](C(=O)N(C)C)C2 | 2.005 | - | -
O=S1(=O)C[C@@H]2[C@H](C1)N(Cc1ccc3ccccc3c1)CCN2CC1CC1 | - | 8.38 | -
Cc1cnn(CC2CN(Cc3noc(C4CC4)n3)CCO2)c1 (stereo unspecified) | -13.76 | 10.84 | -
Cc1nnc(SCCCNc2cc(C3CC3)ncn2)s1 | 2.751 | 3.252 | -7.809
O=C(CC1CC1)N1CCn2cc(Cn3cccn3)nc2C1 | - | 12.94 | -
[H][C@@]12CCN[C@]1([H])CN(S(=O)(=O)c1cccc(Cl)c1)C2 | 5.144 | - | -
Cc1ccnc(N2CCC(NCCOc3ccccc3)CC2)n1 | 4.977 | 15.32 | 6.143
O=C(NCC(Cc1cccc(F)c1)N1CCCC1=O)c1cnccn1 (stereo unspecified) | -8.047 | 18.23 | -4.928
O=C(Nc1ccccn1)NC(CCCO)c1ccccc1 (stereo unspecified) | -15.72 | 7.042 | -24.69
COc1ncccc1CNC(=O)Nc1cccnc1N1CCCC1 | -7.119 | 13.19 | -
CC(C)S(=O)(=O)N1CCN(C(=O)c2cnn(C)c2Cl)CC1 | 0.8911 | 14.32 | -
CSCCc1n[nH]c2c1CN(S(=O)(=O)c1c(C)nn(C)c1C)CC2 | -31.54 | -1.804 | -20.56
CCCN1CCN(c2ccc(-c3nc(C)no3)cn2)CC1 | -28.93 | -0.7194 | -8.863
O=C(CCn1ccnc1)N1CCC(c2nnc(-c3ccccn3)o2)CC1 | -17.97 | 6.395 | -4.217
CC(C)(C)c1nc(CN(Cc2cccs2)CC2CCCO2)no1 (stereo unspecified) | 4.574 | 18.62 | 2.341
CC(C)NC(=O)CCNC(=O)Nc1cnn(-c2ccccc2F)c1 | 4.109 | 13.86 | 17.58
CCN1CCOC(CNCc2cccc(OCc3ccccn3)c2)C1 (stereo unspecified) | -7.231 | 5.556 | 15.23
Cc1ccc(-c2n[nH]cc2CNCC2CCc3nnc(C)n3C2)cc1 (stereo unspecified) | 18.59 | 10.87 | 6.529
O=C(CC1CC1)N1CCC2(CC1)C(=O)NCCN2Cc1ccccc1 | -4.207 | 3.333 | -
COC(=O)N1CCCC(NC(=O)NCc2cccc(C)n2)C1 (stereo unspecified) | 9.192 | 3.846 | -1.712
COc1c(CNCC(O)c2cccc(F)c2)c(C)nn1C (stereo unspecified) | -2.393 | 19.34 | -
CN1CCCC1CCn1ccnc1-c1nc2ccccc2[nH]1 (stereo unspecified) | 17.91 | 16.84 | -
CC(C)N(C)Cc1cnc2n1CCN(C(=O)NC1CCCC1)C2.O=C(O)C(F)(F)F | 7.687 | - | -
O=C(O)C(F)(F)F.O=C(O)C(F)(F)F.O=C(O)C(F)(F)F.[H][C@@]12C[C@@H](OCc3cccnc3)CN1CCN(Cc1nccn1C)C2 | -37.6 | - | 21.5
CCc1cc(C(C)Nc2nc(-c3cccnc3)nc3c2CNC3)on1 (stereo unspecified) | 27.31 | 11.7 | 9.073
CN(C)C(=O)Cn1c(C2CC2)c(CN2CCOCC2)c2cccnc21 | -3.125 | 21.28 | 18.35
COCCN(C)C(C(=O)O)c1ccc(F)c(C)c1 (stereo unspecified) | -0.5132 | 11.25 | -14.11
COc1cc(F)ccc1N(C)Cc1ccncc1 | -8.025 | 6.183 | -26.96
CC(C)Cc1nc(NC(=O)c2cc(-c3cccnc3)n[nH]2)n[nH]1 | 0.7761 | 11.65 | -24.99
Cc1n[nH]c(C2CN(C(=O)c3ccnc(C4CC4)n3)CCO2)n1 (stereo unspecified) | -10.22 | 2.083 | -
CCc1nnc(C(C)N2CCN(CCC(C)(C)C)CC2)o1 (stereo unspecified) | 9.03 | 6.349 | 0.2981
Cc1nn(C)c2nc(N(Cc3ccccc3)CC3CCCO3)sc12 (stereo unspecified) | -5.513 | 17.01 | 25.44
CNC(=O)C1CN(Cc2c[nH]cn2)CCN(C2CCOCC2)C1 (stereo unspecified) | -21.17 | 3.236 | -36.34
CCCS(=O)(=O)NCc1cccnc1Oc1ccc(C)c(F)c1F | 9.195 | 16.31 | -3.869
CC(O)CNCc1ccc(OCc2ccc3c(c2)OCCO3)cc1 (stereo unspecified) | - | 7.746 | -
[H][C@@]12CCN(C(=O)c3sccc3S(N)(=O)=O)C[C@@]([H])(CC1)N2C | 3.653 | - | -12.59
Cc1cccc(S(=O)(=O)N2C[C@H]3C[C@H](C(=O)N(C)C)[C@@H](C2)O3)c1 | - | 6.522 | -
O=C1CC2(CCSC2)C(=O)N1Cc1ncc(-c2ccccc2)o1 (stereo unspecified) | 16.18 | 6.522 | -1.922
CCOc1ccc(C(=O)NCc2ccnc(N3CCCC3)c2)cn1 | 12.89 | 5.163 | 40.65
CS(=O)(=O)NCCN1CCCC1c1noc(C2CC2)n1 (stereo unspecified) | -2.969 | 14.37 | -
Cc1ccc([C@@H]2CN(C(=O)c3ccoc3C)C[C@H]2NC(=O)C2CC2)cc1 | -25.91 | -5.495 | -
O=C(O)C(F)(F)F.O=C(c1ccco1)N1CCCC12CCN(c1ncccn1)CC2 | -4.902 | - | 36.21

Some entries from above, unchanged:

With Cc1cnc(N2CC3(CCN(C(=O)c4ccoc4)C3)C2)nc1 the screen gave Mtb heat-shock: 12.57%; LdMetRS: 7.874%; Mtb growth Cornell: -25.17%.
With CCCS(=O)(=O)NCc1cccnc1Oc1ccc(C)c(F)c1F the screen gave Mtb heat-shock: 9.195%; LdMetRS: 16.31%; Mtb growth Cornell: -3.869%.
With CCOc1ccc(C(=O)NCc2ccnc(N3CCCC3)c2)cn1 the screen gave Mtb heat-shock: 12.89%; LdMetRS: 5.163%; Mtb growth Cornell: 40.65%.
With Cc1nnc(SCCCNC(=O)Cc2ccc3c(c2)OCO3)s1 the screen gave Mtb heat-shock: -9.21%; LdMetRS: 0%.
With O=C1CC2(CCSC2)C(=O)N1Cc1ncc(-c2ccccc2)o1 (stereo unspecified) the screen gave Mtb heat-shock: 16.18%; LdMetRS: 6.522%; Mtb growth Cornell: -1.922%.
With CO[C@H]1CN(Cc2cc(F)ccc2F)CC[C@@]12CCCO2 the screen gave Mtb heat-shock: -15.5%; LdMetRS: 11.06%.
With CCc1nnc(C(C)N2CCN(CCC(C)(C)C)CC2)o1 (stereo unspecified) the screen gave Mtb heat-shock: 9.03%; LdMetRS: 6.349%; Mtb growth Cornell: 0.2981%.
With O=C(O)C(F)(F)F.O=C(O)C(F)(F)F.O=C(O)C(F)(F)F.[H][C@@]12C[C@@H](OCc3cccnc3)CN1CCN(Cc1nccn1C)C2 the screen gave Mtb heat-shock: -37.6%; Mtb growth Cornell: 21.5%.